# Assay results published in patent publication US8460274B2, “Long term drug delivery devices with polyurethane-based polymers and their manufacture” (Endo Pharmaceuticals Solutions Inc., priority 2008, dated 2013).
# At least one compound was matched to its structure with a doubt left.
# Assay: Release rates of active agents from Tecophilic, Tecoflex and Carbothane polyurethane implants (Example 6)
# Assay type: physicochemical
# [1] = Carbothane PC-3595A, F.M.: 4,500
structure (smiles),measurement,setting,value
C[C@@H]1C[C@H]2[C@@H]3CCC4=CC(=O)C=C[C@]4(C)[C@@]3(F)[C@@H](O)C[C@]2(C)[C@@]1(O)C(=O)CO [Dexamethasone],non-normalized release rate,"Carbothane PC-3575A, F.M.: 620",12 µg/day
same,release rate normalized to surface area of the implant,"Carbothane PC-3575A, F.M.: 620",6.2 μg/day/cm^2
same,non-normalized release rate,[1],4.5 µg/day
same,release rate normalized to surface area of the implant,[1],2.3 μg/day/cm^2
same,non-normalized release rate,"Tecoflex EG 100A, F.M.: 10,000",5 µg/day
same,release rate normalized to surface area of the implant,"Tecoflex EG 100A, F.M.: 10,000",2.6 μg/day/cm^2
same,non-normalized release rate,"Tecoflex EG-65D, F.M.: 37,000",1.0 µg/day
same,release rate normalized to surface area of the implant,"Tecoflex EG-65D, F.M.: 37,000",0.5 μg/day/cm^2
same,non-normalized release rate,"Tecoflex EG-85A, F.M.: 2,300",80 µg/day
same,release rate normalized to surface area of the implant,"Tecoflex EG-85A, F.M.: 2,300",40 μg/day/cm^2
same,non-normalized release rate,"Tecophilic HP-60D-20, 15% EWC",170 µg/day
same,release rate normalized to surface area of the implant,"Tecophilic HP-60D-20, 15% EWC",85 μg/day/cm^2
